We go through 2 substances from publication doi:10.1101/2023.01.07.523072.

The chains behind the UniProt entries cited, without tags or fusion partners. Where a name states a change or a piece, a line headed by the entry shows the natural chain unless it says otherwise.
UniProt O48726: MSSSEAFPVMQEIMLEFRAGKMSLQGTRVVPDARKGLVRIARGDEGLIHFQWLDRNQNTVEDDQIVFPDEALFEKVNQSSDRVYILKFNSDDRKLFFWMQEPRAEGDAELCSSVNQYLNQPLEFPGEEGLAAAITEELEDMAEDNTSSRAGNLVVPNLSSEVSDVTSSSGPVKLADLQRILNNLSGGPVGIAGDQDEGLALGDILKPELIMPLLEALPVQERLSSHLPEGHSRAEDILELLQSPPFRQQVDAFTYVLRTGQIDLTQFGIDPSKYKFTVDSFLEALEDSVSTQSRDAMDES
UniProt Q9SGW3: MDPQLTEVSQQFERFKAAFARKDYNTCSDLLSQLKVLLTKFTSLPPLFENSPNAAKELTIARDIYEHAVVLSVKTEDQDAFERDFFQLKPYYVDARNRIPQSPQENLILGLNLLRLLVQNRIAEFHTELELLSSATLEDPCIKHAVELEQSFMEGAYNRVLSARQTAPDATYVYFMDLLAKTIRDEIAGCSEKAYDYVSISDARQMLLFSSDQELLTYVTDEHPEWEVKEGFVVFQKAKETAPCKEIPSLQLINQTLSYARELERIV
UniProt P54609: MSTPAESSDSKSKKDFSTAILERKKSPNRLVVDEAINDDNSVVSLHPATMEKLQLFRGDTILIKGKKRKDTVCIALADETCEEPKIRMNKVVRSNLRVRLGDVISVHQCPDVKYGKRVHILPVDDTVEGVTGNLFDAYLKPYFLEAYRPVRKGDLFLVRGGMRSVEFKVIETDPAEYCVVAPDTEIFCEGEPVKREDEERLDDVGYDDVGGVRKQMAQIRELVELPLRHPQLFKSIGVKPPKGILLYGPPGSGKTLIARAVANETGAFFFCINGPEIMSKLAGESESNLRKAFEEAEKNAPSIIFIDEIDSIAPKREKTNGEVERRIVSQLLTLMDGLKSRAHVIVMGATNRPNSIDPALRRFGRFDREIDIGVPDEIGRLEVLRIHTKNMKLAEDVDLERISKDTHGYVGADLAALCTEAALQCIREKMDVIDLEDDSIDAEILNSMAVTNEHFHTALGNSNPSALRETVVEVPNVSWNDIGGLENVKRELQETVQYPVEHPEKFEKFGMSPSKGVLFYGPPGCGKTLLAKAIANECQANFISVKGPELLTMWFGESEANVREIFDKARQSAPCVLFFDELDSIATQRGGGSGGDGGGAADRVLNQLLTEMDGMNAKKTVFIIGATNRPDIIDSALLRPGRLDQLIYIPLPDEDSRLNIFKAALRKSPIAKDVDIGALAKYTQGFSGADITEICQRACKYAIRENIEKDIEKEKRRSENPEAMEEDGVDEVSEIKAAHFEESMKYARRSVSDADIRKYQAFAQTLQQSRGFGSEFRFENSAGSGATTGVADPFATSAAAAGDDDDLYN

These are yes or no findings as the source states them, for the method shown. Binding seen in cells or lysates may run through a third protein. For part of these data: Binding can be weak; no strength is given. For part of these data: Tags and fused reporters may be left off the sequences shown.

Holding throughout (assay): split reporter
In assay [1] the target is T1, nY-PAP2 (Arabidopsis thaliana) (UniProt Q9LMG7).
T1 sequence: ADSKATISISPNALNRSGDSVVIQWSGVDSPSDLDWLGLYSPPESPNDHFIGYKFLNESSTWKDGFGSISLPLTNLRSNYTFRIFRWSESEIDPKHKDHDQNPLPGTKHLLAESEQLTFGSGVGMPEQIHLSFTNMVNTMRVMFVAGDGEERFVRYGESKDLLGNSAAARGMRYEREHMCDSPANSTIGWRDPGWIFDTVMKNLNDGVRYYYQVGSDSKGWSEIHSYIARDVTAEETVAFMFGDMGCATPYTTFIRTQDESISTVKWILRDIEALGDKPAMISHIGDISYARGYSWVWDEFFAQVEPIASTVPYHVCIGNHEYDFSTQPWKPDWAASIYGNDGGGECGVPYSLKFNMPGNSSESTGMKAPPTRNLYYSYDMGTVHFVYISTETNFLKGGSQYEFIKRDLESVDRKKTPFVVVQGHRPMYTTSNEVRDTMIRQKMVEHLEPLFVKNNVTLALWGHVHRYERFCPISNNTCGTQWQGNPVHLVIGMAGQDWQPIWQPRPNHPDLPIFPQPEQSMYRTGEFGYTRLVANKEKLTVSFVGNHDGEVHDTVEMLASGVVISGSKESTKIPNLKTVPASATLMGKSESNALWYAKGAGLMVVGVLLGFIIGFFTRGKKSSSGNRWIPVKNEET

In assay [2] the target is T2, nY-Toc34 (Arabidopsis thaliana) (UniProt Q38906).
T2 sequence: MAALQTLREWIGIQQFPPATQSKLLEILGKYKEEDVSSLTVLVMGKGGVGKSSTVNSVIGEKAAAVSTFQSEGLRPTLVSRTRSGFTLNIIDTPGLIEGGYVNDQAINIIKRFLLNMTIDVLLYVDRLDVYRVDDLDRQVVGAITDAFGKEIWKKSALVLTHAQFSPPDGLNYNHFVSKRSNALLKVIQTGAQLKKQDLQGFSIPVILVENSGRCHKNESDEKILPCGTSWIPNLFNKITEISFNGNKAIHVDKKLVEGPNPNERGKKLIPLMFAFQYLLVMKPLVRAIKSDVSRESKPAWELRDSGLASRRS

Assay [3] has as its target T3, nY-Toc33 (Arabidopsis thaliana) (UniProt O23680).
T3 sequence: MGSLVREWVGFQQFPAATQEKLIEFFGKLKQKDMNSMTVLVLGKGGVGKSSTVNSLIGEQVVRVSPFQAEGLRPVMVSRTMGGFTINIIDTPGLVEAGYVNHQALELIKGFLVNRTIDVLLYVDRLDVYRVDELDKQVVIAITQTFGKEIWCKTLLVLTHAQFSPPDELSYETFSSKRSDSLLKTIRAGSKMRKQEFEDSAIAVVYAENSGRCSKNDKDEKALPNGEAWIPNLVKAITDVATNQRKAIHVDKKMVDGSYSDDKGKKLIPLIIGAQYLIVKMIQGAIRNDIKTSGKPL

The target in assay [4] is T4, nY-Tom20-2 (Arabidopsis thaliana) (UniProt P82873).
T4 sequence: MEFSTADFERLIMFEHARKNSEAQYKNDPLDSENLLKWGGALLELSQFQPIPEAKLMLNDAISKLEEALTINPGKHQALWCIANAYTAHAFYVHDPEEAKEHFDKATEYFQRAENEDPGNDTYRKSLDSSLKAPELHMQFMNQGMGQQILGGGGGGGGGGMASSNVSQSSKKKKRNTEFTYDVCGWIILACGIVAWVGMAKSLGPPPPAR

Assay [5] addresses T5, nY-Tom20-4 (Arabidopsis thaliana) (UniProt P82805).
T5 sequence: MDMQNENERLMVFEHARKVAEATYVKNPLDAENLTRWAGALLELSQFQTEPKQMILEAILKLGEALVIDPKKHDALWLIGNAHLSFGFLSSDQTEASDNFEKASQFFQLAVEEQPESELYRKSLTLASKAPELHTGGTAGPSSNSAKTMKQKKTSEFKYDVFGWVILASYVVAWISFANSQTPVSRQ

Assay [6] deals with RPN13a, BiFC fusion (Arabidopsis thaliana) (UniProt O48726).
Assay [7] concerns the target T6, SUPPRESSOR OF PPI1 LOCUS1 (SP1), BiFC fusion (Arabidopsis thaliana) (UniProt Q8L7N4).
T6 sequence: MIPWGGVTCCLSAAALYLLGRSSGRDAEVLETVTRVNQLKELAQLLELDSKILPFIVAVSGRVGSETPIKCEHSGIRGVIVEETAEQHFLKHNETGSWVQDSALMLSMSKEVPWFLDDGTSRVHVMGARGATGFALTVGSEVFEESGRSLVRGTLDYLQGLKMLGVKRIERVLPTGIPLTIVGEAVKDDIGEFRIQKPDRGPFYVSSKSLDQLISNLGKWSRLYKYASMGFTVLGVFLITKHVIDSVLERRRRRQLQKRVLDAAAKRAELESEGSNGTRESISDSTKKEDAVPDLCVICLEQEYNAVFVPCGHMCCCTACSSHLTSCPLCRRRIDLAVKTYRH

Assay [8] concerns the target T7, RPN10, BiFC fusion (Arabidopsis thaliana) (UniProt P55034).
T7 sequence: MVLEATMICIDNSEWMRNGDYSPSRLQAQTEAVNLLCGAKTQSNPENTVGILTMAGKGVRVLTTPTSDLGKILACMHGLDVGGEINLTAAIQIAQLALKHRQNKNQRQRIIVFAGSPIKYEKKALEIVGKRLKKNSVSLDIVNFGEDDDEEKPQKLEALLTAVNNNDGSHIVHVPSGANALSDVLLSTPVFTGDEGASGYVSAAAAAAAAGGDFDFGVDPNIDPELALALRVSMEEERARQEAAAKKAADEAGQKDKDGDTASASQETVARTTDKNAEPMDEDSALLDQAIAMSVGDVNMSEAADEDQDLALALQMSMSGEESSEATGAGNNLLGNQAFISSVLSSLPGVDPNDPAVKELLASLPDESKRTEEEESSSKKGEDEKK

Assay [9] concerns the target T8, SP2, BiFC fusion (Arabidopsis thaliana) (UniProt Q5PP51).
T8 sequence: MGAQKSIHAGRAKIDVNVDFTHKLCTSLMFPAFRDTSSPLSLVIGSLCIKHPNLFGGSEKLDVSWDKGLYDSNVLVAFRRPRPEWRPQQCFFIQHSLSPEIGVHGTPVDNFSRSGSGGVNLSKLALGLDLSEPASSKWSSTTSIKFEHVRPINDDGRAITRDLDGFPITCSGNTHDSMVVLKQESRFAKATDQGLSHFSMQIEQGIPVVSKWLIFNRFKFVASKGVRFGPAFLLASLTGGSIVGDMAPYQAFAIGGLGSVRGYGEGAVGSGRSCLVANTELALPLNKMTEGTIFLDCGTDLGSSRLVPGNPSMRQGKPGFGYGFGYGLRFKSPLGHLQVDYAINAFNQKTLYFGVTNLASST

In assay [10] the target is RPN12, BiFC fusion (Arabidopsis thaliana) (UniProt Q9SGW3).
For assay [11], the target named is T9, REGULATORY PARTICLE NON-ATPASE6 (RPN6), BiFC fusion (Arabidopsis thaliana) (UniProt Q9LP45).
T9 sequence: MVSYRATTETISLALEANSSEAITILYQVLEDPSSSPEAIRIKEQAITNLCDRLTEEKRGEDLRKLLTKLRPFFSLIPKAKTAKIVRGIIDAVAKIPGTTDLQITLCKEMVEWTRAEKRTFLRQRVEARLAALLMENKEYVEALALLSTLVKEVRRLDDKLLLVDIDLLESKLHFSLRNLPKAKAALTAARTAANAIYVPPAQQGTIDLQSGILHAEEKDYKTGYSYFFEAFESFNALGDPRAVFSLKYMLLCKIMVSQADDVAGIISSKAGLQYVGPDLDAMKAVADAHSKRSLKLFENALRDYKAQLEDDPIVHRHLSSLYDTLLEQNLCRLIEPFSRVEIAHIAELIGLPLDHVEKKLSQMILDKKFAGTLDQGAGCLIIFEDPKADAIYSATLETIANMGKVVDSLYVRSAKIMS

Assay [12] addresses CDC48A, BiFC fusion of Figure 5A (Arabidopsis thaliana) (UniProt P54609).

As to “TTOP fused to cY at its C terminus (Arabidopsis thaliana)”, the binding entry in assay [1], in assay [2], in [3], in assay [4] and in [5] was “no binding” each time.
For “TTOP, BiFC fusion of Figure 5A (from UniProt F4K1H0)”, the binding result in assay [6] is listed as “binds”; in assay [7], “binds”; in assay [8], “binds”; in assay [9], “no binding”; in assay [10] it was “binds”; in assay [11], “binds”. The binding entry in assay [12] is reported as “binds”.
